This is an account of results in article PMC4891948.

By UniProt entry, the sequences of proteins in these tests, tags left out.
UniProt E2R766: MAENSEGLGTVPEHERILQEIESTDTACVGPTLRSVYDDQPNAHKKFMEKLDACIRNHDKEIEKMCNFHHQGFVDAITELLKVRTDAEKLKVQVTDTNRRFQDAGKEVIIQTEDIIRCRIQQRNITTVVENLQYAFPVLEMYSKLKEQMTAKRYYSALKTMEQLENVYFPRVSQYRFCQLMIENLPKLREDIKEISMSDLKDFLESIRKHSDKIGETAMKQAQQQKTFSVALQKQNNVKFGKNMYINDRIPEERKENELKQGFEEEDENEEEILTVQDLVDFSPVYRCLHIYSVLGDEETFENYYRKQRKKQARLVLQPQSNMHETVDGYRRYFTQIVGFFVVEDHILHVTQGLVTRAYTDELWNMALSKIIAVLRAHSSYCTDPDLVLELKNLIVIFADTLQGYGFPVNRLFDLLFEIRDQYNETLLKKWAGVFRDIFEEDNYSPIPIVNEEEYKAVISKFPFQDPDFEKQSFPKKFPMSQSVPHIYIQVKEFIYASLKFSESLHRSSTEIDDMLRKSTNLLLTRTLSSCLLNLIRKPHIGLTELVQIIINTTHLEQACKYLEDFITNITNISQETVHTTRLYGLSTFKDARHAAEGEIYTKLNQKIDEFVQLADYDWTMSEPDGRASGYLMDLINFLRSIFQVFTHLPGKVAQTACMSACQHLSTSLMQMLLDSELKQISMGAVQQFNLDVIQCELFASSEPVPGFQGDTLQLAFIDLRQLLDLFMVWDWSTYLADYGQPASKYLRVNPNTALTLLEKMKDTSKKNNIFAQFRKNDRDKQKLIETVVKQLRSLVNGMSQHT

These are yes or no findings as the source states them, for the method shown. In cells and extracts the contact can be indirect. Some entries that bind do so weakly or less than the wild type.

The assay addresses Sec6 (canine (endogenous in MDCK)). The assay can be described thus: co-IP; MDCK RIPA lysates immunoprecipitated with cocktails of anti-Sec6 mAbs to N-terminal (NT1, NT2) or C-terminal (CT1, CT2, CT3) epitopes bound to Protein G Sepharose, 2 h at 4°C, stringent washes; immunoblot for exocyst subunits. (In general: In western blotting, separated proteins are transferred to a membrane and probed.)

Sec15 (from UniProt E2R766 1-803): the binding result is listed as “binds”.
